# Results published in patent US9695463B2, “DNA 5-methyl cytosine demethylation activity of vertebrate DNA methyltransferases” (Academia Sinica, priority 2012, dated 2017).
# Some results were stated once for a whole list of compounds, not compound by compound.
# Test system: 5-mC-containing DNA substrate
# Test: 5-mC to C conversion by recombinant DNMTs (hydrolysis-TLC assay)
# Settings: 40 nM recombinant enzyme, buffer B, 1 mM CaCl2, 37°C, 4 h
substance,measurement,value
"DNMT3B: mouse DNA methyltransferase 3B, expressed in 293T nuclear extract or recombinant from BPS Bioscience (SEQ ID NO: 9)",conversion of 5-mC on DNA to C,at least 50%
